Assay [1] addresses T1, GST-CRN5 (coronin 2A) (human) (UniProt Q92828).
T1 sequence: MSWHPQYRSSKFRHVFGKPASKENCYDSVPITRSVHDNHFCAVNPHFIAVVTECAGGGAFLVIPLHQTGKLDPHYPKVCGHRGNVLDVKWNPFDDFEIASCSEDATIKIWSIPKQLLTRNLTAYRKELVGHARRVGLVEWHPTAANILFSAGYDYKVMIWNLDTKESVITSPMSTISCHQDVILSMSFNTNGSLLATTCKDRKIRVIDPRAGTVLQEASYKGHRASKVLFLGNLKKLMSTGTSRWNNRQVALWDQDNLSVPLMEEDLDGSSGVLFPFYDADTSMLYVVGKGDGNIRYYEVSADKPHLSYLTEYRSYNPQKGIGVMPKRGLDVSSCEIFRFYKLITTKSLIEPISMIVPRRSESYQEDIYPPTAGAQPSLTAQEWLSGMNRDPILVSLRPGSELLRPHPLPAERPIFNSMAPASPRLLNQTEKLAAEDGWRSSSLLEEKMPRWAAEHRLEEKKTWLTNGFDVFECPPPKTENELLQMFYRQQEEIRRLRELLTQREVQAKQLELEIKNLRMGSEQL
Kind of assay: co-IP; GST-CRN5 held by CRN5 mAb K77-578-1 on Protein G-coated magnetic microbeads (Miltenyi columns), washed; GST-MAPK14 purified from HEK293 cells circulated five times through the columns; washed, eluted with SDS sample buffer; GST pAb immunoblot; both purified.

Sequences of proteins named here, by UniProt entry; tags and fusion partners are left off.
UniProt Q16539: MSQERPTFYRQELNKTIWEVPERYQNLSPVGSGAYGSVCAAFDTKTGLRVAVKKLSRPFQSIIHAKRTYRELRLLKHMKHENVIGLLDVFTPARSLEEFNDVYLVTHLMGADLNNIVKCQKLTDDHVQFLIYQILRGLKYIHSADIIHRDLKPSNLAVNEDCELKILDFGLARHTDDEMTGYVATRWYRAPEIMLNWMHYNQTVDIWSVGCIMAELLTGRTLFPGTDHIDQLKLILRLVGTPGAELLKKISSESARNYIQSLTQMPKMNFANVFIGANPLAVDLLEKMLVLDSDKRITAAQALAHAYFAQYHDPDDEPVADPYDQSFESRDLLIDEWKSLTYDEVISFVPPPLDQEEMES

Assay [2] concerns the target T1, GST-CRN5 (coronin 2A) (human). Kind of assay: pull-down; GST-CRN5 on glutathione-sepharose beads as bait; TEV-cleaved MAPK14 or purified His6-PRMT5 as prey; 50 mM Tris/HCl pH 8.0, 150 mM NaCl, 0.5 % NP-40; three washes; SDS-PAGE and immunoblot; both purified.

For 2 substances, binding results are on record in PMC4612562, “Coronin 2A (CRN5) expression is associated with colorectal adenoma-adenocarcinoma sequence and oncogenic signalling” (BMC Cancer, 2015).

Results are given in words; binding and its absence hold for the method and conditions named. Some entries that bind do so weakly or less than the wild type. Tags and fused reporters may be left off the sequences shown.

Turning to “GST-MAPK14 purified from HEK293 cells (phosphorylated, active) (from UniProt Q16539 1-360) (enzyme)”, the binding result in assay [1] is reported as “binds”.

For “MAPK14, non-tagged, purified from E. coli (non-phosphorylated, inactive) (from UniProt Q16539 1-360) (enzyme)”, the binding result in assay [2] is listed as “binds”.
